PubChem BioAssay AID743448 | Peter MacCallum Cancer Centre – 2014
Aim: 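Third-round triage of 106 confirmed candidates in four colon lines under two drugs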 (follow-up of hits). Cell system: four human colon cancer cell lines: HCT116-VR (vorinostat-resistant HCT116 derivative), SW480, SW620 and LIM1215. Reagent: siRNA pool against human genes, 40 nM siRNA pool. Timing: drug added two days after transfection, read one day later. Conditions: vorinostat 2.5 µM on one half of each plate, etoposide 5 µM on the other half. Measured: 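Caspase 3/7 activity by luminescence and live-cell viability by fluorescence, each given as a ratio to mock-transfected wells and as a robust z-score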. Reading the numbers: caspase ratio to mock: higher = more caspase activity than mock; viability ratio to mock: higher = more live cells than mock; caspase robust z-score: higher = more caspase activity, more apoptosis. Call rule: 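a row is a hit if caspase relative to mock is 1.6 or above or viability relative to mock is 0.75 or below; wells dying heavily without drug are not called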. Meaning of the calls: active = caspase or viability hit in this panel; inactive = no change, or unhealthy well.
This is an unselected part of 106 reagents. 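Calls are per line and drug panel including etoposide, not vorinostat-specific; gene picks needed hits in two or more extra lines with vorinostat versus etoposide.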 Entries without a mark were called inactive. Further read-outs or replicates are left out here.

| target gene | cell line and drug panel | caspase ratio to mock | viability ratio to mock | caspase robust z-score |
| --- | --- | --- | --- | --- |
| LAD1 | LIM1215 cells with etoposide | 2.06 (active) | 1.05 | -0.05 |
| LAD1 | LIM1215 cells with vorinostat | 2.34 (active) | 0.96 | 0.27 |
| LAD1 | SW480 cells with etoposide | 3.83 (active) | 0.8 | 1.34 |
| LAD1 | SW480 cells with vorinostat | 2.5 (active) | 0.76 | 1.69 |
| LAD1 | SW620 cells with etoposide | 0.94 | 0.96 | -0.52 |
| LAD1 | SW620 cells with vorinostat | 1.77 (active) | 1.02 | 1.19 |
| LAD1 | vorinostat-resistant HCT116 cells with etoposide | 1.84 (active) | 1.09 | 0.14 |
| LAD1 | vorinostat-resistant HCT116 cells with vorinostat | 2.42 (active) | 1.06 | 0.31 |
| HPCAL1 | LIM1215 cells with etoposide | 3.07 (active) | 0.9 | 1.07 |
| HPCAL1 | LIM1215 cells with vorinostat | 3.2 (active) | 1.04 | 1.38 |
| HPCAL1 | SW480 cells with etoposide | 1.96 (active) | 0.94 | -0.06 |
| HPCAL1 | SW480 cells with vorinostat | 1.57 | 0.95 | -0.29 |
| HPCAL1 | SW620 cells with etoposide | 0.98 | 0.89 | -0.43 |
| HPCAL1 | SW620 cells with vorinostat | 1.61 (active) | 1.02 | 0.7 |
| HPCAL1 | vorinostat-resistant HCT116 cells with etoposide | 1.4 | 0.98 | -0.43 |
| HPCAL1 | vorinostat-resistant HCT116 cells with vorinostat | 1.43 | 0.88 | -0.84 |
| OR6T1 | LIM1215 cells with etoposide | 3.97 (active) | 0.9 | 1.92 |
| OR6T1 | LIM1215 cells with vorinostat | 2.04 (active) | 0.91 | -0.08 |
| OR6T1 | SW480 cells with etoposide | 4.2 (active) | 0.94 | 1.68 |
| OR6T1 | SW480 cells with vorinostat | 1.62 (active) | 0.79 | -0.2 |
| OR6T1 | SW620 cells with etoposide | 1.58 | 0.96 | 0.99 |
| OR6T1 | SW620 cells with vorinostat | 1.2 | 0.88 | -0.44 |
| OR6T1 | vorinostat-resistant HCT116 cells with etoposide | 2.15 (active) | 1 | 0.55 |
| OR6T1 | vorinostat-resistant HCT116 cells with vorinostat | 1.62 (active) | 0.88 | -0.6 |
